Experimental data published in PubChem BioAssay AID743255 (National Center for Advancing Translational Sciences (NCATS), 2014).
Hit rate of the full screen: of about 390,000 compounds, about 910 (0.23%) were called active. The inconclusive results got no clear call from the source; some entries with a clear call stand among them for comparison. Calls follow the shape of the dose curve; as a rule, active = well fitted inhibition curve with a large enough effect; inconclusive = small, poorly fitted or top-dose-only effect; inactive = no such curve, though single readings can be large or run the other way. A potency beside an inconclusive call is a rough fit, not a confirmed value.

Sequences of proteins named here, by UniProt entry; tags and fusion partners are left off. A change or cut given only in a name is not applied to a line headed by its entry.
UniProt O94782: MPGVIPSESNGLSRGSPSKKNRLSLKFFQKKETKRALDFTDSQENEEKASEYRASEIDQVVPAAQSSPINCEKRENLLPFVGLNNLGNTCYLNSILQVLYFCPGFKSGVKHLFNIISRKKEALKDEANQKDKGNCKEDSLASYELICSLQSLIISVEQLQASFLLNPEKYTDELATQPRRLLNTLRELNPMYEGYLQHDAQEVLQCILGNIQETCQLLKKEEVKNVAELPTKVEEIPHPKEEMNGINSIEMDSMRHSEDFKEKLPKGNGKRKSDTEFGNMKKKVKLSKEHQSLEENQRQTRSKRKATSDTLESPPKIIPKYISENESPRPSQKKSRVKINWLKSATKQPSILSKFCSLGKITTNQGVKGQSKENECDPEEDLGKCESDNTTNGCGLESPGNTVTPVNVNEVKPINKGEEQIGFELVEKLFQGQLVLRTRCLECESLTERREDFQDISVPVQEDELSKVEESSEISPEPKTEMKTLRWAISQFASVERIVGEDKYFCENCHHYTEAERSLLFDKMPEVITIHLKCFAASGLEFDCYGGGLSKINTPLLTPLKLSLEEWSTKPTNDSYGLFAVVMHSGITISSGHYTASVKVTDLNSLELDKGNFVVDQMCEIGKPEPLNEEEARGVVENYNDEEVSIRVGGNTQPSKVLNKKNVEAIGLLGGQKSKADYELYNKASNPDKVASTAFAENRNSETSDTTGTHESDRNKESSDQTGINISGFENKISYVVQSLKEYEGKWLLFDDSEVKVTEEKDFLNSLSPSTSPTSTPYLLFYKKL

molecular target: Ubiquitin carboxyl-terminal hydrolase 1 (Homo sapiens) (UniProt O94782); experiment: Inhibitors of USP1/UAF1: Primary Screen; conditions: recombinant USP1/UAF1, Ub-Rhodamine cleavage fluorescence; activity change, negative = inhibition: at 57.1 µM (top of the series); also: nearly all actives have a fitted effect of over 60% in size
Procedure, shortened: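 Step one: compound is pinned into 1nM USP1/UAF1 in HEPES pH 7.8 buffer with TCEP. Step two: 15 min room-temperature incubation. Step three: Ub-Rho (150nM final) starts cleavage, tracked by fluorescence over six one-minute reads.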
% is scaled to controls: 0 for no effect and ±100 for the full control effect; potency is read from the fitted curve at half-maximal effect.

Potency, active:
Cc1ccc2c(c1)c(/C=C/c1cc[n+](C)cc1)c(C)n2C 22.4 µM

Potency, inconclusive:
C=CC[C@@H](CC(=O)N(CCO)Cc1ccccc1)C(=O)N[C@@H](COC(=O)[C@H](CC=C)CC(=O)OC(C)(C)C)Cc1c[nH]c2ccccc12 70.8 µM [inhibitor, partial curve, poor fit], CC(C)=CCC/C(C)=C/CNC(=O)C[C@H]1C[C@H](C(=O)N2CCCCC2)[C@@]2(CCc3ccccc3)c3[nH]c4ccc(Cl)cc4c3CCN2C1=O 50.1 µM [inhibitor, partial curve, poor fit], Oc1ccc(N=Cc2cc(Br)c(N3CCOCC3)o2)cc1 8.91 µM [inhibitor, full curve, poor fit], Cc1nn(-c2ccccc2)c(N2CCCC2)c1/C=N/NC(=O)c1cc2ccccc2cc1O 25.1 µM [inhibitor, partial curve], Cc1ccc(S(=O)(=O)N2[C@@H](c3ccccc3)C(C(=O)O)=CC[C@H]2c2ccc(Cl)c(Cl)c2)cc1 89.1 µM [inhibitor, partial curve, poor fit], CCC[C@@H](O)c1cc2cc(OC)c(OC)cc2c(=O)o1 44.7 µM [inhibitor, single point], CCn1cc2c(n1)-c1c(oc(C(=O)Nc3cccc(C)c3C)c1C)CC2 50.1 µM [inhibitor, partial curve, poor fit], O=C(c1ccccc1)c1ccc2nc(-c3ccco3)c(-c3ccco3)nc2c1 28.2 µM [inhibitor, partial curve], CCC(=O)Nc1ccc2nn(-c3ccc(F)cc3)nc2c1 39.8 µM [inhibitor, partial curve, poor fit], COc1ccccc1NC(=O)c1c(NC(=O)COc2ccccc2)sc2c1CCCCC2 6.31 µM [inhibitor, full curve, poor fit], C=CCN1C(=O)c2cccc3c(N4CCCCC4)ccc(c23)C1=O 44.7 µM [inhibitor, single point], CCC(CO)Oc1cc(NCc2ccncc2)c2ncn(C(C)C)c2c1 (stereo not drawn) 63.1 µM [inhibitor, partial curve, poor fit], CC(C)=CCOc1ccc([C@@H]2COc3c(ccc4c3C=CC(C)(C)O4)C2)c(O)c1 1.78 µM [inhibitor, full curve, poor fit], Cc1ccc2c(C)c(C(=O)N(C)C(C)c3ccon3)oc2c1C (stereo not drawn) 35.5 µM [inhibitor, single point], Cc1ccc(Cl)cc1NC(=O)C1CCN(S(=O)(=O)c2cccc3nonc23)CC1 0.316 µM [inhibitor, full curve], Cc1cccc(C)c1NC(=O)CC(C)c1ccccc1 (stereo not drawn) 8.91 µM [inhibitor, partial curve], CCOC(=O)CSC1=C(C#N)C(c2ccco2)C(C(=O)OCc2ccccc2)=C(C)N1 (stereo not drawn) 31.6 µM [inhibitor, single point], CCC1(c2ccccc2)ON(c2c(Br)cccc2Br)C1=O (stereo not drawn) 39.8 µM [inhibitor, partial curve], Cc1ccccc1C(=O)N1CCC(C(=O)N2CCN(S(=O)(=O)c3ccccc3F)CC2)CC1 5.62 µM [inhibitor, single point], COc1ccc2nc(C3CCCCC3)nc(C3CCCCC3)c2c1 0.199 µM [inhibitor, full curve, poor fit], CC(C)COP(=O)(c1ccc(N(C)C)cc1)C(O)c1ccccc1F (stereo not drawn) 44.7 µM [inhibitor, partial curve], O=C(c1cccc([N+](=O)[O-])c1)N1CCN(C(=O)c2ccco2)CC1 8.91 µM [inhibitor, single point], C/C(=N\NC1=NCCN1)c1ccc(Cl)cc1 0.224 µM [inhibitor, full curve, poor fit], Cc1ccc(CCN2C(Nc3ccccc3)=NC[C@@H]2C)cc1 100 µM [inhibitor, partial curve, poor fit], CN(C)C(/C=C/Nc1ccc(F)cc1)=C(C#N)C#N 5.01 µM [inhibitor, partial curve], COc1ccc(-c2nnc3ccc(SC(C(C)=O)C(C)=O)nn23)cc1OC 0.1 µM [inhibitor, full curve, poor fit], Cc1ccc(S(=O)(=O)c2nc(S(=O)(=O)c3ccccc3)sc2N2CCN(C)CC2)cc1 0.282 µM [inhibitor, full curve, poor fit], C[C@@H]1CN([C@@H](C)CO)C(=O)CCCn2nncc2CO[C@H]1CN(C)C(=O)c1ccc2ccn(C)c2c1 0.282 µM [inhibitor, full curve, poor fit], COc1ccc(OCc2cc(C(=O)N3CCCC(O)C3)no2)c2ccccc12 (stereo not drawn) 35.5 µM [inhibitor, partial curve], O=C(COC(=O)c1ccccc1O)NC(c1ccccc1)c1ccccc1 0.355 µM [inhibitor, full curve, poor fit], Cc1c(NC(=O)c2cccc(NC(=O)Cc3ccccc3Cl)c2)c(=O)n(-c2ccccc2)n1C 44.7 µM [inhibitor, partial curve, poor fit], Cc1ccc(N=Nc2ccc(O)c(P(=O)(c3ccccc3)c3ccccc3)c2)cc1 39.8 µM [inhibitor, partial curve], CCN(CC)c1ccc(C2Nc3cccc4cccc(c34)N2)c(O)c1 39.8 µM [inhibitor, single point], CCc1c(Cl)nc(N)nc1Nc1ccccc1Cl 7.08 µM [inhibitor, full curve, poor fit], O=C1NC[C@@H](c2ccccc2)OC(=O)[C@@H](Cc2ccc(F)cc2)CC/C=C/C[C@H]1CC(=O)N(CCO)Cc1ccccc1 50.1 µM [inhibitor, partial curve, poor fit], COC(=O)c1cc2oc3ccccc3c2n1Cc1nc(-c2cccc(Cl)c2)oc1C 0.708 µM [inhibitor, full curve, poor fit], CC(C)(Sc1cc(C(C)(C)C)c(O)c(C(C)(C)C)c1)Sc1cc(C(C)(C)C)c(O)c(C(C)(C)C)c1 25.1 µM [inhibitor, single point], COc1cc2c(cc1OC)C(Cc1ccccc1[N+](=O)[O-])=NCC2 35.5 µM [inhibitor, single point], Cc1ccccc1N(CC(=O)N1CCN(Cc2ccccc2)CC1)S(C)(=O)=O 0.398 µM [inhibitor, full curve, poor fit], Cc1cc(C)n(-c2nc3cc(Cl)c(Cl)cc3nc2Nc2ccc(F)cc2C)n1 3.98 µM [inhibitor, single point], CCn1c(=O)c2cc(C(=O)Nc3cc(C)c(Cl)cc3OC)sc2c2ccccc21 6.31 µM [inhibitor, partial curve], O=C(O)c1[nH]c2ccccc2c1C(c1cc(Br)ccc1O)c1c(C(=O)O)[nH]c2ccccc12 39.8 µM [inhibitor, partial curve], CCc1c(C)nc(N)n2c(SCC(=O)NC3CCCCC3)nnc12 3.98 µM [inhibitor, full curve], Cc1cccc(CS(=O)(=O)c2ncc(Cl)c(C(=O)Nc3ccc(F)cc3)n2)c1 79.4 µM [inhibitor, partial curve, poor fit], CN1C/C(=C\c2ccc(N3CCOCC3)cc2)C(=O)/C(=C/c2ccc(N3CCOCC3)cc2)C1 28.2 µM [inhibitor, single point]

Activity change, negative = inhibition, inactive:
Cc1ccccc1NC(=O)c1cccc2nc3ccccc3nc12 -5.68%, N#Cc1c(C(F)(F)F)cc(-c2cccs2)nc1SCC(=O)Nc1ccccc1F -2.81%, C/C(=N\NC(=O)c1c(C)nc2ccccn12)c1ccco1 -4.81%, COC(=O)CSc1ccc(-c2nc3ccc(C)cc3[nH]2)cn1 -11.7%, Cc1ccccc1N1CCN(CCCCN2C(=O)C3CCCN3C2=O)CC1 (stereo not drawn) -4.24%, Oc1ccccc1Nc1nc(NCc2ccco2)c2ccccc2n1 -19.9%, CCOc1ccccc1NC(=O)C(NCCN(C)C)c1ccccc1 (stereo not drawn) -23%, CN1C(=O)CS/C1=N\NC(=O)COc1cccc2cccnc12 -23%, Cc1ccc(C)n1-c1ccc(N2CCOCC2)c([N+](=O)[O-])c1 -12%, CC1CCN(S(=O)(=O)c2ccc(NC(=O)Cn3nnc(-c4ccccc4F)n3)cc2)CC1 -23.3%, CC(C)NC(=O)C(C)N1CCN(S(=O)(=O)c2ccc3ccccc3c2)CC1 (stereo not drawn) 1.79%, O=C(Nc1ccc(N2CCN(C(=O)c3ccc(Cl)cc3)CC2)cc1)c1ccc2c(c1)OCCO2 -18.8%, Cc1ccc(C(=O)c2nocc2C(=O)c2cccs2)cc1 -6.86%, Cc1cc(-n2c(C)cc(C(=O)CN3C(=O)C(=O)N(C)C3=O)c2C)no1 -3.81%, CCCCCCC(=O)N(O)C1CC(=O)N(c2ccc(Cl)cc2)C1=O (stereo not drawn) -9.77%

Activity change, negative = inhibition, inconclusive:
Nc1c(C(=O)NCc2cccs2)nnn1CC(=O)Nc1cccc(Cl)c1 -14.7% [inhibitor], CNc1c([N+](=O)[O-])cnn1-c1cccc(Cl)n1 -0.0327% [inhibitor]
